According to US20170112897A1, “METHODS FOR TREATING BRAIN INSULIN RESISTANCE” (priority 2015, published 2017):
At least one compound was matched to its structure with a doubt left.

Legend:
[1] = test system: APP/PS1 transgenic mouse model of AD (hippocampal formation insulin resistance); assay: Ex vivo insulin stimulation of hippocampal formation from APP/PS1 mice treated ip with liraglutide; format: in vivo; conditions: for brain (hippocampal formation) insulin resistance in APP/PS1 mice: 25 nmol/kg ip daily for 2 months, ex vivo 1 nM insulin 30 min; for insulin responsiveness of hippocampal tissue (IRβ pY960, IRS-1 pY612, Akt pS473): 25 nmoles/kg ip daily for two months
[2] = test system: insulin signaling pathway (IRβ pY960, IRS-1 pY, Akt pS473) in hippocampal formation tissue; assay: Ex vivo insulin stimulation of hippocampal formation tissue from normal, MCI and AD dementia cases after IRA pretreatment; format: cell-based, human
[3] = test system: serine phosphorylated insulin receptor substrate-1 (IRS-1 pS); assay: Ex vivo Western blotting of basal IRS-1 pS to total IRS-1 in hippocampal formation; format: cell-based, human
[4] = test system: SOCS3 associated with the insulin receptor (SOCS3/IRβ); assay: Ex vivo Western blotting of SOCS3 to IR beta chain ratio in hippocampal formation; format: cell-based, human; conditions: MCI cases
Description: The data shown are ratios of SOCS3 to IR beta chain (IRβ) in ex vivo Western blotting tests on the hippocampal formation of age- and sex-matched normal (N), non-amnestic mild cognitive impairment (naMCI), amnestic mild cognitive impairment (aMCI), and AD dementia (ADd) cases (n=10 in each group). The basal SOCS3/IRβ levels were highly elevated in naMCI, aMCI, and ADd cases compared to the normal cases. […] Asterisks indicate statistical significance levels for differences within diagnostic groups (*=p<0.05 and *** p=<0.0001).

[5] = test system: APP/PS1 mouse model of AD; conditions: APP/PS1 mice, 25 nmol/kg ip daily for 2 months; cited from earlier work
AD dementia cases = conditions: clinical trial; cited from earlier work

## CCCCCCCCCCCCCCCC(=O)N[C@@H](CCC(=O)NCCCC[C@H](NC(=O)[C@H](C)NC(=O)[C@H](C)NC(=O)[C@H](CCC(N)=O)NC(=O)CNC(=O)[C@H](CCC(=O)O)NC(=O)[C@H](CC(C)C)NC(=O)[C@H](Cc1ccc(O)cc1)NC(=O)[C@H](CO)NC(=O)[C@H](CO)NC(=O)[C@@H](NC(=O)[C@H](CC(=O)O)NC(=O)[C@H](CO)NC(=O)[C@@H](NC(=O)[C@H](Cc1ccccc1)NC(=O)[C@@H](NC(=O)CNC(=O)[C@H](CCC(=O)O)NC(=O)[C@H](C)NC(=O)[C@@H](N)Cc1cnc[nH]1)[C@@H](C)O)[C@@H](C)O)C(C)C)C(=O)N[C@@H](CCC(=O)O)C(=O)N[C@@H](Cc1ccccc1)C(=O)N[C@H](C(=O)N[C@@H](C)C(=O)N[C@@H](Cc1c[nH]c2ccccc12)C(=O)N[C@@H](CC(C)C)C(=O)N[C@H](C(=O)N[C@@H](CCCNC(=N)N)C(=O)NCC(=O)N[C@@H](CCCNC(=N)N)C(=O)NCC(=O)O)C(C)C)[C@@H](C)CC)C(=O)O [liraglutide]
[1]
  brain (hippocampal formation) insulin resistance in APP/PS1 mice: substantially reduces hippocampal formation insulin resistance
[1]; listed as Liraglutide
  brain (hippocampal formation) insulin resistance in APP/PS1 mice: virtually eliminates brain insulin resistance
[1]; transgenic (Tg) APP/PS1 mice, p<0.001 vs no drug
  insulin responsiveness of hippocampal tissue (IRβ pY960, IRS-1 pY612, Akt pS473): markedly improved
[1]; wild-type (WT) mice
  insulin responsiveness of hippocampal tissue (IRβ pY960, IRS-1 pY612, Akt pS473): remained normal
[2]; 100 nM, one hour exposure
  insulin resistance in brain tissue from MCI and AD dementia cases: significantly reduces insulin resistance
[2]; AD dementia, IR level, 100 nM
  hippocampal insulin resistance, ADd cases at the IR level: substantially reduced
[2]; MCI and AD dementia cases, 100 nM 30 minutes prior to 1 nM insulin 30 minutes
  insulin responsiveness of hippocampal formation tissue: significantly improves its insulin responsiveness
[2]; MCI tissue, 100 nM
  elevation of insulin responsiveness: 60-75%
[2]; aMCI and especially AD dementia cases, 100 nM
  insulin responsiveness after pretreatment at IRS-1 and Akt levels: remained far from normal
[2]; aMCI, IR level, 100 nM
  hippocampal insulin resistance, aMCI cases at the level of the IR: nearly eliminated hippocampal insulin resistance
[2]; aMCI, below the IR, 100 nM
  hippocampal insulin resistance, aMCI cases below the IR: substantially reduced
[2]; naMCI, all levels of the insulin signaling pathway (IR, IRS-1, Akt), 100 nM
  hippocampal insulin resistance, naMCI cases: nearly eliminated hippocampal insulin resistance
[2]; normal (N) cases, 100 nM pretreatment
  insulin responsiveness, normal cases: did not induce insulin hypersensitivity
[3]; ADd cases
  basal IRS-1 pS (ratio to total IRS-1): not in the ADd cases
[3]; aMCI cases
  basal IRS-1 pS (ratio to total IRS-1): significantly reduced
[4]
  basal SOCS3/IRβ ratio: highly effective in reducing this ratio
[5]
  AD-like pathologies (Aβ plaque load, microglial activation, synaptic loss, vascular damage): reduces their AD-like pathologies
  AD-like symptoms (poor object recognition and spatial memory): reduces
  synaptic plasticity: restores their synaptic plasticity
AD dementia cases
  decline in glucose metabolism: halt decline in glucose metabolism
